In PMC7480113:
These are yes or no findings as the source states them, for the method shown. Binding seen in cells or lysates may run through a third protein. Some entries that bind do so weakly or less than the wild type. Where a sequence is shown, tags or fusion partners need not be part of it.

Target: T1, GFP-Cdc42ep5^WT (murine Cdc42ep5, N-terminal GFP fusion) (murine) (UniProt Q9Z0X0)
T1 sequence: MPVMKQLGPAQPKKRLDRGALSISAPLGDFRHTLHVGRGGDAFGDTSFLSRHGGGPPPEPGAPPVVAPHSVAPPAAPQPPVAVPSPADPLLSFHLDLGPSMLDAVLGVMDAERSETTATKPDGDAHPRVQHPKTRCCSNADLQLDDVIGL
Assay: co-IP; anti-GFP immunoprecipitation from lysates of 690.cl2 cells expressing GFP-tagged constructs; lysis buffer 50 mM Tris-HCl pH 7.5, 150 mM NaCl, 1% Triton X-100, 10% glycerol, 2 mM EDTA; Protein G beads, 4°C; blot for Sept9 and GFP

B1: Sept9 (murine, endogenous) (protein, UniProt Q80UG5 1-583)
chain: MKKSYSGVTRTSSGRLRRLADPTGPALKRSFEVEEIEPPNSTPPRRVQTPLLRATVASSSQKFQDLGVKNSEPAARLVDSLSQRSPKPSLRRVELAGAKAPEPMSRRTEISIDISSKQVESTASAAGPSRFGLKRAEVLGHKTPEPVPRRTEITIVKPQESVLRRVETPASKIPEGSAVPATDAAPKRVEIQVPKPAEAPNCPLPSQTLENSEAPMSQLQSRLEPRPSVAEVPYRNQEDSEVTPSCVGDMADNPRDAMLKQAPASRNEKAPMEFGYVGIDSILEQMRRKAMKQGFEFNIMVVGQSGLGKSTLINTLFKSKISRKSVQPTSEERIPKTIEIKSITHDIEEKGVRMKLTVIDTPGFGDHINNENCWQPIMKFINDQYEKYLQEEVNINRKKRIPDTRVHCCLYFIPATGHSLRPLDIEFMKRLSKVVNIVPVIAKADTLTLEERVYFKQRITADLLSNGIDVYPQKEFDEDAEDRLVNEKFREMIPFAVVGSDHEYQVNGKRILGRKTKWGTIEVENTTHCEFAYLRDLLIRTHMQNIKDITSNIHFEAYRVKRLNEGNSAMANGIEKEPEAQEM
  binding: binds
